Test results taken from patent US5624799.
For at least one entry, the source does not settle the construct or the ends of the probe. For some of these results: Negatives hold for the conditions tested. For some of these results: At least one result comes from cells or an extract, where the contact may be indirect.

Protein sequences, listed by entry. Tags and fused reporters are not part of them. Residues count along the entry.
UniProt P09874, 2-1014: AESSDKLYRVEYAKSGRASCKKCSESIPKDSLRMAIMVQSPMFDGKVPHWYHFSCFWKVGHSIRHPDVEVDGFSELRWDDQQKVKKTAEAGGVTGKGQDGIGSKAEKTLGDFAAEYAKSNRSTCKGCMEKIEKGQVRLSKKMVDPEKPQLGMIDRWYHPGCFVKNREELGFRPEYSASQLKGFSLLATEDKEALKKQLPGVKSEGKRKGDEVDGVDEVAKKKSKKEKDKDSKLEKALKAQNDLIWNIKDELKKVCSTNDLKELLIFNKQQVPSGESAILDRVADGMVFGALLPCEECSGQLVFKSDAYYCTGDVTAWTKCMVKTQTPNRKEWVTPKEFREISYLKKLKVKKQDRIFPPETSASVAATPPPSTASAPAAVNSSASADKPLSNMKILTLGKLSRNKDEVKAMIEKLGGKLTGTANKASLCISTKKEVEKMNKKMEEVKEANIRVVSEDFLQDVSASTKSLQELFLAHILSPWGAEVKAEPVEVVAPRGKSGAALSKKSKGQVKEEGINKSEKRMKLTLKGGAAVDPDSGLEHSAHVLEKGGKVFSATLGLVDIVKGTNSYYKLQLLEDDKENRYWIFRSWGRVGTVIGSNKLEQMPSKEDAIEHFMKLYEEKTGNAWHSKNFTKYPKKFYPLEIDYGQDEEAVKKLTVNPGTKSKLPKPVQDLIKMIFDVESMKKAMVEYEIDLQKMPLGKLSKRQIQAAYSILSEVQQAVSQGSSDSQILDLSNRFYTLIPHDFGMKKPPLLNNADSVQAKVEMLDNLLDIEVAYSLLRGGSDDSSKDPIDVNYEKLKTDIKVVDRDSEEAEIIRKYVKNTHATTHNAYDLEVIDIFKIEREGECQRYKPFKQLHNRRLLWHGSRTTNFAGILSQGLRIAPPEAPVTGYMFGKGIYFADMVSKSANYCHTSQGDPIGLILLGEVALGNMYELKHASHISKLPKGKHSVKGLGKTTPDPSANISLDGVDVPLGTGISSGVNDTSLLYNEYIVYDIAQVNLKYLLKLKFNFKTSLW

Assays:
p114-MBP (Homo sapiens) [1] = target: p114-MBP (Homo sapiens) (UniProt P09874); experiment: competition with a labelled probe; details: purified native protein
[2] = target: p114-MBP (crude cell extract) (Homo sapiens) (UniProt P09874); experiment: binding assay; details: south-western blot; 20 mM Tris-HCl pH 7.4, 50 mM NaCl, 5 mM MgCl2, salmon sperm DNA and poly(dI-dC) competitors, RT; detected in malignant breast tumors; protein in an extract
p114-MBP (Homo sapiens) [3] = target: p114-MBP (Homo sapiens) (UniProt P09874); experiment: EMSA; details: did not substantially bind mutant MAR probe; purified native protein; label: end-labeled at both ends by Klenow

Row | Sequence | binding result (p114-MBP (Homo sapiens) [1]; 100 ng unlabelled wild type MAR competed away binding to labelled wild type MAR probe) | binding result [2] | binding result (p114-MBP (Homo sapiens) [1]; same amount of unlabelled mutant MAR did not compete, label: end-labeled at both ends by Klenow) | binding result (p114-MBP (Homo sapiens) [3])
1 | TCTTTAATTTCTAATATATTTAGAATTC / TTCTAAATATATTAGAAATTAAAGAGAA [wild type MAR probe (25)5, concatemer of 5 ATC repeats] | binds | binds |  | 
2 | TCTTTAATTTCTACTGCTTTAGAA (double strand) [mutant MAR probe (24)8, concatemer of 8 ATC-like repeats] |  |  | no binding | no binding
